This note sets out measurements from patent publication US20040029208A1, “Assay method and kit for testing biological material for exposure to stress using biomarkers” (priority 2000, published 2004).

“And” between values parts separate entries of the source, which are not always exact repeats. Identical values can stand only once.

What all share (assay): TLC plant biomarker pattern after herbicide spraying (greenhouse)
Common to all, as to format: in vivo

For one data set, the system named is Centauréa cýanus.
The next data set has as its system Lólium perénne.
Another data set has as its system Anagallis arvensis. As to the method: The experiments were performed in the green-house at the National Environmental Research Institute, Silkeborg, Denmark. All the seeds needed light to germinate, and were sown at the soil surface in individual 11 cm pots. The soil used during the experiments contained: (SM Growing Mould (Growing medium by special soil (sphagnum) added clay granulate), 0-30 mm; grade of turnover 55-75; added per m^3: 3 kg lime (white chalk), 1.5 kg dolit chalk, 40 kg clay granulate; Fertilizer added granulate: NO3-N: 55.0 g; NH4-N: 65.0 g; P: 106.6 g; K: 224.0 g; Mg: 22 g; Micro nutrients added in chelate form, Mo in uorganic form: B-Boron: 1 g; Cu-copper: 6 g; Mn-Manganese: 3 g; Zinc-Zn: 3 g: Fe-iron: 6 g; Mo- molybdenum: 1.4 g). […]
The two extracts (freshtfresh ethanol) were applicated immediately on a TLC plate (10 μl on both TLC-Plate types (see below) using cool air-drying. The 75% ethanolic extract was applicated 10 μl on Silica-gel TLC-plates and 5 μl on Cellulose TLC-plates (see below). The fresh/fresh ethanolic extractsare recommended to perform if fresh plant material are to be analysed (field-test). The freeze-dried or frozen plant material extraction Is recommended if the analysis are performed in the laboratory. […]

Consider `O=C(O)CNCP(=O)(O)O` [Glyphosate], for which the “Rf-value of plant biomarker” value is reported as 0.10 with Centauréa cýanus (TLC 6 (lipids and terpens)); 0.08 with Centauréa cýanus (TLC 7 (non-specific compounds)).
Take `COC(=O)c1ccccc1S(=O)(=O)NC(=O)Nc1nc(C)nc(OC)n1` [Metsulfuron methyl]: the “Rf-value of plant biomarker” value with Centauréa cýanus (TLC 2 (phenolic compounds)) was 0.52 and 0.86; in the data set with Centauréa cýanus (TLC 7 (non-specific compounds)) it was 0.42.
For `CCC(CC)Nc1c([N+](=O)[O-])cc(C)c(C)c1[N+](=O)[O-]` [Pendimethalin], the “Rf-value of plant biomarker” value is 0.44 in the data set with Centauréa cýanus (TLC 2 (phenolic compounds)); 0.02 in the data set on Lólium perénne (TLC 7 (non-specific compounds)); 0.14 in the data set on Lólium perénne (TLC 4d (amino acids)); 0.20 and 0.31 with Anagallis arvensis (TLC 1 (non-specific compounds)); 0.32 in the data set with Anagallis arvensis (TLC 7 (non-specific compounds)).
For Bromoxynil, the “Rf-value of plant biomarker” value in the data set on Lólium perénne (TLC 1 (non-specific compounds)) came out at 0.03; in the data set with Lólium perénne (TLC 6 (lipids and terpens)) it was 0.56.
